Source: PubChem BioAssay AID504834 (National Center for Advancing Translational Sciences (NCATS), 2011)
About 22,000 (6.9%) of roughly 320,000 compounds were called active. Inconclusive means that the source gave no clear call. Such entries were picked first, then a sample of the others. Calls come from the whole dose curve; as a rule, active = well fitted inhibition curve with a large enough effect; inconclusive = small, poorly fitted or top-dose-only effect, or another doubt; inactive = no such curve, though single readings can be large or run the other way. A potency beside an inconclusive call is a rough fit, not a confirmed value.

Experiment: Primary qHTS for delayed death inhibitors of the malarial parasite plastid, 96 hour incubation
Details: P. falciparum luciferase reporter growth; series mostly up to 28.7 µM
Procedure, shortened: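 96 h incubation, 37 C, 5% CO2, of luciferase-reporter P. falciparum-infected RBCs (2% hematocrit, 0.05% parasitemia final) with test compounds; endpoint luminescence.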
Potency is the fitted concentration of half-maximal effect.

Question: Which Potency does the source give for `Cc1[nH]n(-c2ccccc2)c(=O)c1C=Nc1ccc(S(=O)(=O)N=C(N)N)cc1` here?
Answer: inactive

Question: With `CCOC(=O)Cn1nc(NC(=O)c2ccc3c(c2)OCO3)cc1C` as the molecule, how does the Potency read?
Answer: inactive

Question: Which Potency does the source give for `COc1ccc(C(=O)OCc2ccc(C)cc2)cc1S(=O)(=O)N1CCOCC1` here?
Answer: inconclusive: 18.5 µM [inhibitor, single point]

Question: For `Cc1ccccc1C(=O)c1c[nH]c(C(=O)NCCc2ccccn2)c1`, which Potency is on record?
Answer: active: 9.28 µM

Question: Which Potency does the source give for `NC(=O)C1CCN(C(=O)c2cn(-c3ccccc3)nc2-c2cccnc2)CC1` here?
Answer: inactive

Question: Which Potency does the source give for `Cc1cc(S(=O)(=O)N2CCN(c3ccccc3O)CC2)c(C)s1` here?
Answer: inconclusive: 5.86 µM [inhibitor, partial curve, poor fit]

Question: For `O=C(NCCCN1CCCC1)c1ccc2c(c1)N(Cc1ccccc1F)C(=O)c1ccccc1S2=O` (stereo not drawn), which Potency is on record?
Answer: inactive

Question: For `O=C(Cn1cnc2cc([N+](=O)[O-])ccc2c1=O)NC1CCS(=O)(=O)C1` (stereo not drawn), which Potency is on record?
Answer: inactive

Question: Which Potency does the source give for `O=C(Nc1ccc([N+](=O)[O-])cc1)N1CCCCCC1` here?
Answer: inconclusive: 10.4 µM [inhibitor, partial curve, poor fit]

Question: Which Potency does the source give for `Cc1ccc(CN2CC(C(=O)N3CC=C(c4ccccc4)CC3)CC2=O)cc1` (stereo not drawn) here?
Answer: inconclusive: 1.65 µM [inhibitor, full curve, poor fit]

Question: With `Cc1ccc(C)c(NC(=O)c2ccc(OCc3c(C)noc3C)cc2)c1` as the molecule, how does the Potency read?
Answer: inconclusive: 9.28 µM [inhibitor, partial curve, poor fit]

Question: With `CCOC(=O)c1c(C)n(C)c2ccc(OC)c(NC(=O)CN3CCC(C(=O)OCC)CC3)c12` as the molecule, how does the Potency read?
Answer: active: 3.29 µM

Question: With `CCOC(=O)N1CCC(N2C(=O)c3ccccc3C2Nc2ccc(S(=O)(=O)N3CCCCC3)cc2)CC1` (stereo not drawn) as the molecule, how does the Potency read?
Answer: inconclusive: 10.4 µM [inhibitor, single point]

Question: With `COC(=O)CCCC(=O)NCC1(N(C)Cc2ccccc2)Cc2ccccc2C1` as the molecule, how does the Potency read?
Answer: inconclusive: 13.1 µM [inhibitor, single point]

Question: With `Cn1nc(C(F)(F)F)c(-c2ccc(F)cc2)c1NC(=O)c1cccnc1` as the molecule, how does the Potency read?
Answer: inconclusive: 18.5 µM [inhibitor, single point]

Question: With `Cc1ccc(C(=O)N/C(=C\c2ccc(Br)cc2)c2nc(=S)[nH][nH]2)cc1` as the molecule, how does the Potency read?
Answer: inconclusive: 3.29 µM [inhibitor, partial curve, poor fit]

Question: Which Potency does the source give for `CCOc1ccc(/C=N/NC(=O)C(OC)c2ccccc2)cc1` (stereo not drawn) here?
Answer: active: 9.28 µM

Question: For `COc1ccc(C(=O)NCC(=O)OCC(=O)N2N=C(c3ccc(Cl)cc3)CC2c2ccco2)cc1OC` (stereo not drawn), which Potency is on record?
Answer: inactive

Question: Which Potency does the source give for `Cc1cccc(Nc2ccncc2S(=O)(=O)NC(=O)NC(C)C)c1` here?
Answer: inconclusive: 2.56 µM [inhibitor, partial curve, poor fit]

Question: With `Cc1ccc2[nH]cc(/C=C/c3cc[n+](C)cc3)c2c1` as the molecule, how does the Potency read?
Answer: inconclusive: 0.294 µM [inhibitor, full curve, poor fit]

Question: For `Cc1cc(C)c(S(=O)(=O)NCc2nc3nc(C)cc(C)n3n2)c(C)c1`, which Potency is on record?
Answer: active: 11.7 µM

Question: With `CC1=C(C(=O)Nc2ccccc2C(=O)NC2CCCCC2C)SCCO1` (stereo not drawn) as the molecule, how does the Potency read?
Answer: inconclusive: 18.5 µM [inhibitor, single point]

Question: With `O=C(Nc1cccc([N+](=O)[O-])c1)C1CC(=O)N(C2CCCCC2)C1` (stereo not drawn) as the molecule, how does the Potency read?
Answer: inactive

Question: With `CCN(CC)S(=O)(=O)c1ccc(/C=C/C(=O)OCC(=O)NCc2cccs2)cc1` as the molecule, how does the Potency read?
Answer: inactive

Question: Which Potency does the source give for `C#CC[N+]1(CC#Cc2cccc3ccccc23)CCOCC1` here?
Answer: inactive

Question: Which Potency does the source give for `O=C(Nc1ncc2c(n1)CC(c1ccc(Cl)cc1)CC2=O)c1ccco1` (stereo not drawn) here?
Answer: inactive

Question: With `COc1cccc(CN(C)C(=O)c2ccc(C)c(S(=O)(=O)N3CCCCC3)c2)c1` as the molecule, how does the Potency read?
Answer: inconclusive: 18.5 µM [inhibitor, single point]

Question: For `Cn1c(=O)n(CC(=O)O)c(=O)c2c1nc1n2CCCN1CCc1ccccc1`, which Potency is on record?
Answer: inconclusive: 4.15 µM [inhibitor, single point]

Question: With `Cc1sc2ncnc(NCc3ccccc3)c2c1C` as the molecule, how does the Potency read?
Answer: inconclusive: 0.165 µM [inhibitor, full curve, poor fit]

Question: Which Potency does the source give for `COc1ccsc1NC(=O)OCc1ccc(Cl)cc1` here?
Answer: inactive

Question: With `Cc1cc(=O)[nH]c2ccc(S(=O)(=O)Nc3ccc(O)cc3)cc12` as the molecule, how does the Potency read?
Answer: inconclusive: 14.7 µM [inhibitor, single point]

Question: With `CC(C)CCNc1ncnc2c1nnn2Cc1ccccc1` as the molecule, how does the Potency read?
Answer: active: 10.4 µM

Question: Which Potency does the source give for `O=C(CSc1nc(-c2ccco2)cc(C(F)(F)F)n1)Nc1ccccc1C(F)(F)F` here?
Answer: active: 7.38 µM

Question: With `O=C(Nc1ncccc1Cl)C(Sc1ccccc1)c1ccccc1` (stereo not drawn) as the molecule, how does the Potency read?
Answer: inconclusive: 0.208 µM [inhibitor, full curve, poor fit]

Question: Which Potency does the source give for `O=C(/C=C/c1ccccc1)c1ccccn1` here?
Answer: inconclusive: 8.28 µM [inhibitor, single point]

Question: Which Potency does the source give for `COc1cc2[nH]c(C(=O)NCc3ccccc3)cc2c(OC)c1OC` here?
Answer: inconclusive: 16.5 µM [inhibitor, single point]

Question: With `O=[N+]([O-])c1cc(S(=O)(=O)N2CCOCC2)ccc1N1CCNCC1` as the molecule, how does the Potency read?
Answer: inactive

Question: For `CCC(N=c1cc(-c2ccc(OC)c(OC)c2)oc2ccc(C)cc12)C(=O)O` (stereo not drawn), which Potency is on record?
Answer: inactive

Question: For `COC(=O)c1ccc(NC(=O)c2ccccc2)o1`, which Potency is on record?
Answer: inactive

Question: For `CN(C)S(=O)(=O)c1cc(NC(=O)C2=COCCO2)ccc1Cl`, which Potency is on record?
Answer: active: 11.7 µM

Question: Which Potency does the source give for `Cc1c(NC(=O)c2ncn[nH]2)cccc1-c1nc2ccccc2s1` here?
Answer: inactive

Question: Which Potency does the source give for `Cc1cccc(-c2n[nH]c(=S)n2Cc2ccccc2)c1` here?
Answer: inactive

Question: Which Potency does the source give for `CC(=O)Oc1ccc(OC(C)=O)c(SCCCCCN2CCOCC2)c1` here?
Answer: active: 7.38 µM

Question: Which Potency does the source give for `Cc1ccc(C)c(S(=O)(=O)N2CCN(C(=O)CCc3c[nH]c4ccccc34)CC2)c1` here?
Answer: inconclusive: 11.7 µM [inhibitor, single point]

Question: For `CCOc1cc(CNCCCN2CCOCC2)cc(Br)c1OCc1ccccc1Cl`, which Potency is on record?
Answer: inconclusive: 9.28 µM [inhibitor, partial curve, poor fit]

Question: For `COc1cc(/C=N/Nc2nn3cnnc3c3ccccc23)ccc1O`, which Potency is on record?
Answer: inconclusive: 0.0033 µM [inhibitor, full curve, poor fit]

Question: With `CN1CCN(C(=O)c2ccc3c(c2)NC(=O)/C(=C/c2ccccc2)S3)CC1` as the molecule, how does the Potency read?
Answer: inconclusive: 2.33 µM [inhibitor, full curve]

Question: With `NC(=O)C1CCN(c2oc(-c3ccccc3)nc2S(=O)(=O)c2ccc(Br)cc2)CC1` as the molecule, how does the Potency read?
Answer: inconclusive: 5.22 µM [inhibitor, partial curve, poor fit]

Question: With `CC(=O)NNC(=O)CCn1nnc(-c2ccc(Cl)cc2)n1` as the molecule, how does the Potency read?
Answer: inactive

Question: With `CCCCNc1nc2ccccc2nc1Cl` as the molecule, how does the Potency read?
Answer: inactive

Question: For `Cc1ccc(C2C(C(=O)c3sc(C)nc3C)=C(O)C(=O)N2CCN(C)C)o1` (stereo not drawn), which Potency is on record?
Answer: active: 5.86 µM

Question: Which Potency does the source give for `Cc1ccc(C)c(S(=O)(=O)NCC(c2ccco2)N2CCc3ccccc3C2)c1` (stereo not drawn) here?
Answer: inconclusive: 11.7 µM [inhibitor, single point]

Question: For `O=C(NCSC1=NCCS1)c1ccccc1`, which Potency is on record?
Answer: inconclusive: 18.5 µM [inhibitor, single point]

Question: With `O=C1N=c2ccccc2=C1c1sc(=S)n(-c2ccc(O)cc2)c1O` as the molecule, how does the Potency read?
Answer: inconclusive: 5.22 µM [inhibitor, partial curve, poor fit]

Question: Which Potency does the source give for `CCOc1ccc(NC(=O)C(C)N2C(=O)c3ccccc3C2=O)cc1` (stereo not drawn) here?
Answer: inconclusive: 13.1 µM [inhibitor, single point]

Question: For `Cc1ccc(C)c(-n2c(CNC(=O)c3ccco3)nnc2SCC(=O)N2CCc3ccccc32)c1`, which Potency is on record?
Answer: active: 13.1 µM

Question: With `O=C(Nc1ccccc1N1CCOCC1)c1cccnc1Cl` as the molecule, how does the Potency read?
Answer: inactive

Question: For `OC(CNCc1ccccc1)Cn1ccc2ccccc21` (stereo not drawn), which Potency is on record?
Answer: inconclusive: 3.29 µM [inhibitor, single point]

Question: Which Potency does the source give for `Cc1ccc(/C=N/n2c(COc3ccccc3)n[nH]c2=S)s1` here?
Answer: inconclusive: 0.0262 µM [inhibitor, full curve, poor fit]

Question: Which Potency does the source give for `O=C(CSc1nnc2c(Cl)cc(C(F)(F)F)cn12)NCc1ccc(F)cc1` here?
Answer: active: 8.28 µM

Question: For `Cc1ccccc1CNCCCSc1ncccn1`, which Potency is on record?
Answer: inactive

Question: For `Cc1cccc(NCN2C(=O)c3ccccc3C2=O)c1`, which Potency is on record?
Answer: inconclusive: 0.0657 µM [inhibitor, full curve, poor fit]

Question: Which Potency does the source give for `Cc1ccc(S(=O)(=O)N2CCN(C(=O)CNC(=O)c3ccc(Br)o3)CC2)cc1` here?
Answer: inconclusive: 18.5 µM [inhibitor, single point]

Question: For `CC(=O)n1cc(/C=N/NC(=O)c2cccc(O)c2)c2ccccc21`, which Potency is on record?
Answer: inconclusive: 3.7 µM [inhibitor, partial curve]

Question: Which Potency does the source give for `O=C(CCc1nnc(-c2ccc(-c3ccccc3)cc2)o1)NCCc1ccccn1` here?
Answer: inconclusive: 18.5 µM [inhibitor, partial curve, poor fit]

Question: For `COc1cccc2cc(C(=O)Oc3ccccc3)c(=O)oc12`, which Potency is on record?
Answer: active: 13.1 µM

Question: With `NS(=O)(=O)c1ccc(CCNC(=O)c2ccccc2Cc2ccccc2)cc1` as the molecule, how does the Potency read?
Answer: inconclusive: 18.5 µM [inhibitor, single point]

Question: Which Potency does the source give for `N=c1sccn1CC(=O)Nc1ccc(SC(F)F)cc1` here?
Answer: inactive

Question: For `COc1ccc(-c2noc(CNC(=O)c3ccoc3C)n2)cc1OC`, which Potency is on record?
Answer: inactive

Question: For `CCn1c(=O)n(CC)c2cc(N3CCCC3)c(NC(=O)c3ccccc3)cc21`, which Potency is on record?
Answer: inconclusive: 10.4 µM [inhibitor, single point]

Question: For `O=C(Cc1cccs1)Nc1ccc(-c2nc3ccccc3[nH]2)cc1`, which Potency is on record?
Answer: inconclusive: 2.94 µM [inhibitor, single point]

Question: With `S=C(c1ccc(-c2ccccc2)cc1)N1CCOCC1` as the molecule, how does the Potency read?
Answer: inconclusive: 18.5 µM [inhibitor, single point]

Question: With `CCC1=C(OC(=O)N(CC)CC)N2C(=O)OC(=NCCc3c[nH]c4ccccc34)[C@]2(C)[C@H]2C1=CC[C@H]1C(=O)N(CC(=O)OC)C(=O)[C@H]12` as the molecule, how does the Potency read?
Answer: active: 14.7 µM
